Measurements reported in PubChem BioAssay AID504791 (Drosophila RNAi Screening Center, 2011).
Test: 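Factors in Argonaute-based small RNA production and activity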 (primary screen). Cell system: Drosophila S2-derived reporter cells. Reagents: long dsRNA against Drosophila genes, about 150-250 ng dsRNA per well (siRNA assay); about 80-120 ng (miRNA assay). Timing: about 5 days (siRNA assay); about 4 days (miRNA assay). Challenge: copper sulfate induction of reporters: 25 µM (siRNA assay); 200 mM stated (miRNA assay), 1-2 days before reading. Detection: 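Dual luciferase assay: Renilla to firefly signal ratio in each well, scaled to the mean ratio of its plate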. Active means: 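First-pass picks had plate-scaled ratios over 1.5 for the siRNA assay, over 1.6 for the miRNA assay, or under 0.6; two distinct dsRNAs had to score alike on retest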.
In all, the deposit lists about 23,000 reagents; shown is a random part of those that have a named target and a result. Over the whole deposit, 199 (0.86%) got an active call. 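Plate-scaled ratios behind the calls are not deposited; printed light signals are raw; many rows marked increased or decreased are still called inactive.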 A plus sign joins genes that one reagent is predicted to hit. Reagent sequences are not shown. The record does not give: the direction of the score.

Target gene | DRSC id | stable siRNA reporter change | miRNA reporter change | stable assay Renilla, run 1 (luminescence) | stable assay firefly, run 1 (luminescence) | call
Pgam5 (Phosphoglycerate mutase 5) | DRSC18551 | – | – | 8610 | 5.17e5 | inactive
Grl65a (Gustatory receptor-like 65a) | DRSC08837 | – | – | 5402 | 2.87e5 | inactive
tws (twins) | DRSC12767 | – | – | 4704 | 3.33e5 | inactive
tws (twins) | DRSC17092 | – | – | 9416 | 4.44e5 | inactive
St3 (Sulfotransferase 3) | DRSC04505 | – | – | 9012 | 4.08e5 | inactive
repo (reversed polarity) | DRSC16369 | – | – | 6675 | 2.22e5 | inactive
repo (reversed polarity) | DRSC23108 | – | – | 3275 | 2.97e5 | inactive
CG2218 | DRSC15428 | – | – | 7219 | 3.85e5 | inactive
l(2)05714 (lethal (2) 05714) | DRSC03118 | – | – | 12554 | 4.89e5 | inactive
Cul3 (Cullin 3) | DRSC03537 | – | – | 12438 | 1.19e6 | inactive
Cul3 (Cullin 3) | DRSC21525 | – | – | 9368 | 4.61e5 | inactive
Cul3 (Cullin 3) | DRSC27885 | – | reporter ratio raised past the hit cutoff | – | – | inactive
CkIIalpha-i3 (CKII-alpha subunit interactor-3) | DRSC08651 | – | – | 11403 | 4.87e5 | inactive
CG1701 | DRSC06641 | – | – | 6307 | 4.02e5 | inactive
Cpr65Ay (Cuticular protein 65Ay) | DRSC08796 | – | – | 5090 | 4.59e5 | inactive
Pcyt1 (Phosphocholine cytidylyltransferase 1) | DRSC08157 | – | – | 6504 | 2.89e5 | inactive
Polr3G (RNA polymerase III subunit G) | DRSC21511 | – | – | 7815 | 5.19e5 | inactive

Not a retest: an excerpt of the list.
Target gene | DRSC id | stable siRNA reporter change | miRNA reporter change | stable assay Renilla, run 1 (luminescence) | stable assay firefly, run 1 (luminescence) | call
Cul3 (Cullin 3) | DRSC27885 | – | reporter ratio raised past the hit cutoff | – | – | inactive
CkIIalpha-i3 (CKII-alpha subunit interactor-3) | DRSC08651 | – | – | 11403 | 4.87e5 | inactive
CG1701 | DRSC06641 | – | – | 6307 | 4.02e5 | inactive

More entries follow:
Target gene | DRSC id | stable siRNA reporter change | miRNA reporter change | stable assay Renilla, run 1 (luminescence) | stable assay firefly, run 1 (luminescence) | call
CG11663 | DRSC17793 | – | – | 5751 | 2.83e5 | inactive
CG11663 | DRSC23063 | – | – | 3892 | 3.06e5 | inactive
Usp5 (Ubiquitin specific protease 5) | DRSC08244 | – | – | 7618 | 4.28e5 | inactive
Trx2 (Thioredoxin 2) | DRSC03622 | – | – | 7495 | 3.81e5 | inactive
CG31664 | DRSC22084 | – | – | 9754 | 5.25e5 | inactive
CG13282 | DRSC02254 | – | – | 8038 | 3.91e5 | inactive
CG31949 | DRSC00110 | – | – | 6026 | 3.75e5 | inactive
CG31626 + CG8677 | DRSC21844 | reporter ratio lowered past the hit cutoff | – | 8271 | 9.09e5 | inactive
aqrs (aquarius) | DRSC14724 | – | – | 7204 | 3.75e5 | inactive
GXIVsPLA2 | DRSC10243 | – | – | 8789 | 3.49e5 | inactive
SdhBL (Succinate dehydrogenase, subunit B (iron-sulfur)-like) | DRSC20039 | – | – | 5000 | 3.20e5 | inactive
CG8026 | DRSC07055 | – | – | 5071 | 5.22e5 | inactive
CG8026 | DRSC07056 | – | – | 6640 | 4.35e5 | inactive
Csk (C-terminal Src kinase) | DRSC12861 | – | – | 3947 | 2.92e5 | inactive
Csk (C-terminal Src kinase) | DRSC15223 | – | – | 7018 | 2.92e5 | inactive
Csk (C-terminal Src kinase) | DRSC23272 | – | – | 2631 | 2.87e5 | inactive
Efhc1.1 (EF-hand domain containing 1.1) | DRSC20135 | – | – | 5382 | 3.77e5 | inactive
